{"source": "the supplement of paper PMC8728848", "experiment_in_all_cases": "glycan array binding signal (z-score within array); higher = stronger binding", "settings_in_all_cases": "glycan notation: IUPAC condensed, linker removed", "key": {"[1]": {"biological_target": "Neu5Ac(a2-6)Gal(b1-4)GlcNAc(b1-3)Gal(b1-4)GlcNAc(b1-3)Gal(b1-4)GlcNAc(b1-2)Man(a1-3)[Neu5Ac(a2-6)Gal(b1-4)GlcNAc(b1-3)Gal(b1-4)GlcNAc(b1-3)Gal(b1-4)GlcNAc(b1-2)Man(a1-6)]GalNAc", "procedure,_shortened": "(§1)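 Negative Z-scores can be read as non-binding. The Z-score is calculated within each array and then averaged across arrays of one protein sequence at different concentrations or buffers and across linkers. Arrays, 3228 in all, were curated from the Consortium for Functional Glycomics database and kept only where the protein sequence was available.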"}, "[2]": {"biological_target": "Neu5Ac(a2-6)Gal(b1-4)GlcNAc(b1-3)Gal(b1-4)GlcNAc(b1-3)GalNAc", "procedure,_shortened": "as §1"}, "[3]": {"biological_target": "Neu5Ac(a2-6)Gal(b1-4)GlcNAc(b1-3)Gal(b1-4)GlcNAc(b1-3)[Neu5Ac(a2-6)Gal(b1-4)GlcNAc(b1-3)Gal(b1-4)GlcNAc(b1-6)]GalNAc", "procedure,_shortened": "as §1"}, "[4]": {"biological_target": "Neu5Ac(a2-6)Gal(b1-4)GlcNAc(b1-3)Gal(b1-4)GlcNAc(b1-6)[Gal(b1-3)]GalNAc", "procedure,_shortened": "as §1"}, "[5]": {"biological_target": "Neu5Ac(a2-6)Gal(b1-4)GlcNAc(b1-3)Gal(b1-4)[Fuc(a1-3)]GlcNAc(b1-3)Gal(b1-4)[Fuc(a1-3)]GlcNAc", "procedure,_shortened": "as §1"}, "[6]": {"biological_target": "Neu5Ac(a2-6)Gal(b1-4)GlcNAc(b1-3)GalNAc", "procedure,_shortened": "as §1"}, "[7]": {"biological_target": "Neu5Ac(a2-6)Gal(b1-4)GlcNAc(b1-3)[Neu5Ac(a2-6)Gal(b1-4)GlcNAc(b1-6)]GalNAc", "procedure,_shortened": "as §1"}, "[8]": {"biological_target": "Neu5Ac(a2-6)Gal(b1-4)GlcNAc(b1-6)GalNAc", "procedure,_shortened": "as §1"}, "[9]": {"biological_target": "Neu5Ac(a2-6)Gal(b1-4)GlcNAc(b1-6)[Gal(b1-3)GlcNAc(b1-3)]Gal(b1-4)Glc", "procedure,_shortened": "as §1"}, "[10]": {"biological_target": "Neu5Ac(a2-6)Gal(b1-4)GlcNAc(b1-6)[Gal(b1-3)]GalNAc", "procedure,_shortened": "as §1"}, "[11]": {"biological_target": "Neu5Ac(a2-6)Gal(b1-4)GlcNAc6S", "procedure,_shortened": "as §1"}, "Neu5Ac(a2-6)GalNAc": {"biological_target": "Neu5Ac(a2-6)GalNAc", "procedure,_shortened": "as §1"}, "[12]": {"biological_target": "Neu5Ac(a2-6)GalNAc(b1-4)GlcNAc", "procedure,_shortened": "as §1"}, "[13]": {"biological_target": "Neu5Ac(a2-6)GalNAc(b1-4)GlcNAc6S", "procedure,_shortened": "as §1"}, "[14]": {"biological_target": "Neu5Ac(a2-6)GlcNAc(b1-4)GlcNAc", "procedure,_shortened": "as §1"}, "[15]": {"biological_target": "Neu5Ac(a2-6)GlcNAc(b1-4)GlcNAc(b1-4)GlcNAc", "procedure,_shortened": "as §1"}, "Neu5Ac(a2-8)Neu5Ac": {"biological_target": "Neu5Ac(a2-8)Neu5Ac", "procedure,_shortened": "as §1"}, "[16]": {"biological_target": "Neu5Ac(a2-8)Neu5Ac(a2-3)Gal(b1-3)GalNAc(b1-4)[Neu5Ac(a2-3)]Gal(b1-4)Glc", "procedure,_shortened": "as §1"}, "[17]": {"biological_target": "Neu5Ac(a2-8)Neu5Ac(a2-3)Gal(b1-3)GalNAc(b1-4)[Neu5Ac(a2-8)Neu5Ac(a2-3)]Gal(b1-4)Glc", "procedure,_shortened": "as §1"}, "[18]": {"biological_target": "Neu5Ac(a2-8)Neu5Ac(a2-3)Gal(b1-4)Glc", "procedure,_shortened": "as §1"}, "[19]": {"biological_target": "Neu5Ac(a2-8)Neu5Ac(a2-3)Gal(b1-4)GlcNAc", "procedure,_shortened": "as §1"}, "[20]": {"biological_target": "Neu5Ac(a2-8)Neu5Ac(a2-3)[Gal(b1-3)GalNAc(b1-4)]Gal(b1-4)Glc", "procedure,_shortened": "as §1"}, "[21]": {"biological_target": "Neu5Ac(a2-8)Neu5Ac(a2-3)[GalNAc(b1-4)]Gal(b1-4)Glc", "procedure,_shortened": "as §1"}, "[22]": {"biological_target": "Neu5Ac(a2-8)Neu5Ac(a2-8)Neu5Ac", "procedure,_shortened": "as §1"}, "[23]": {"biological_target": "Neu5Ac(a2-8)Neu5Ac(a2-8)Neu5Ac(a2-3)Gal(b1-4)Glc", "procedure,_shortened": "as §1"}, "[24]": {"biological_target": "Neu5Ac(a2-8)Neu5Ac(a2-8)Neu5Ac(a2-3)[Gal(b1-3)GalNAc(b1-4)]Gal(b1-4)Glc", "procedure,_shortened": "as §1"}, "[25]": {"biological_target": "Neu5Ac(a2-8)Neu5Ac(a2-8)Neu5Ac(a2-3)[GalNAc(b1-4)]Gal(b1-4)Glc", "procedure,_shortened": "as §1"}, "[26]": {"biological_target": "Neu5Ac(a2-8)Neu5Ac(a2-8)Neu5Ac(a2-8)Neu5Ac(a2-3)[GalNAc(b1-4)]Gal(b1-4)Glc", "procedure,_shortened": "as §1"}, "[27]": {"biological_target": "Neu5Ac(a2-8)Neu5Gc(a2-3)Gal(b1-4)GlcNAc", "procedure,_shortened": "as §1"}, "[28]": {"biological_target": "Neu5Ac(b2-6)Gal(b1-4)GlcNAc", "procedure,_shortened": "as §1"}, "Neu5Ac(b2-6)GalNAc": {"biological_target": "Neu5Ac(b2-6)GalNAc", "procedure,_shortened": "as §1"}, "[29]": {"biological_target": "Neu5Ac9Ac(a2-3)Gal(b1-3)GlcNAc", "procedure,_shortened": "as §1"}, "[30]": {"biological_target": "Neu5Ac9Ac(a2-3)Gal(b1-4)GlcNAc", "procedure,_shortened": "as §1"}, "[31]": {"biological_target": "Neu5Ac9Ac(a2-6)Gal(b1-4)GlcNAc", "procedure,_shortened": "as §1"}, "[32]": {"biological_target": "Neu5Gc(a2-3)Gal(b1-3)GlcNAc", "procedure,_shortened": "as §1"}, "[33]": {"biological_target": "Neu5Gc(a2-3)Gal(b1-3)[Fuc(a1-4)]GlcNAc", "procedure,_shortened": "as §1"}, "Neu5Gc(a2-3)Gal(b1-4)Glc": {"biological_target": "Neu5Gc(a2-3)Gal(b1-4)Glc", "procedure,_shortened": "as §1"}, "[34]": {"biological_target": "Neu5Gc(a2-3)Gal(b1-4)GlcNAc", "procedure,_shortened": "as §1"}, "[35]": {"biological_target": "Neu5Gc(a2-3)Gal(b1-4)GlcNAc(b1-3)Gal(b1-4)GlcNAc(b1-2)Man(a1-3)[Neu5Gc(a2-3)Gal(b1-4)GlcNAc(b1-3)Gal(b1-4)GlcNAc(b1-2)Man(a1-6)]Man(b1-4)GlcNAc(b1-4)GlcNAc", "procedure,_shortened": "as §1"}, "[36]": {"biological_target": "Neu5Gc(a2-3)Gal(b1-4)[Fuc(a1-3)]GlcNAc", "procedure,_shortened": "as §1"}, "[37]": {"biological_target": "Neu5Gc(a2-6)Gal(b1-4)GlcNAc", "procedure,_shortened": "as §1"}, "Neu5Gc(a2-6)GalNAc": {"biological_target": "Neu5Gc(a2-6)GalNAc", "procedure,_shortened": "as §1"}, "[38]": {"biological_target": "Neu5Gc(a2-8)Neu5Ac(a2-3)Gal(b1-4)GlcNAc", "procedure,_shortened": "as §1"}, "[39]": {"biological_target": "Neu5Gc(a2-8)Neu5Gc(a2-3)Gal(b1-4)GlcNAc", "procedure,_shortened": "as §1"}, "[40]": {"biological_target": "Neu5Gc(a2-8)Neu5Gc(a2-3)Gal(b1-4)GlcNAc(b1-3)Gal(b1-4)GlcNAc", "procedure,_shortened": "as §1"}}, "note": "Some of the results follow.", "data": [{"binder": "SspB A3vp1 (Streptococcus gordonii), Q54186 (protein) MTNEADYQAKLAAYQTELARVQKANADAKATYEKAVEDNKAKNAAIKAENEEIKQRNAVAKTDYEAKLAKYEADLAKYKKEFAAYTAALAEAESKKKQDGYLSEPRSQSLNFKSEPNAIRTIDSSVHQYGQQELDALVKSWGISPTNPDRKKSRAYSYFNAINSNNTYAKLVLEKDKPVDVTYTGLKNSSFNGKKISKVVYTYTLKETGFNDGTKMTMFASSDPTVTAWYNDYFTSTNINVKVKFYDEEGQLMNLTGGLVNFSSLNRGNGSGAIDKDAIESVRNFNGRYIPISGSSIKIHENNSAYADSSNAEKSLGARWNTSEWDTTSSPNNWYGAIVGEITQSEISFNMASSKSGNIWFAFNSNINAIGVPTKPVAPTAPTQPMYETEKPLEPAPVAPSYENEPTPPVKTPDQPEPSKPAAALEHHHHHH", "values": [{"measurement": "glycan array binding signal (z-score)", "setting": "[1]", "value": 1.36}, {"measurement": "glycan array binding signal (z-score)", "setting": "[2]", "value": -0.196}, {"measurement": "glycan array binding signal (z-score)", "setting": "[3]", "value": 1.79}, {"measurement": "glycan array binding signal (z-score)", "setting": "[4]", "value": -0.002}, {"measurement": "glycan array binding signal (z-score)", "setting": "[5]", "value": 0.696}, {"measurement": "glycan array binding signal (z-score)", "setting": "[6]", "value": -0.583}, {"measurement": "glycan array binding signal (z-score)", "setting": "[7]", "value": 0.337}, {"measurement": "glycan array binding signal (z-score)", "setting": "[8]", "value": 1.8}, {"measurement": "glycan array binding signal (z-score)", "setting": "[9]", "value": -0.143}, {"measurement": "glycan array binding signal (z-score)", "setting": "[10]", "value": 2.82}, {"measurement": "glycan array binding signal (z-score)", "setting": "[11]", "value": -0.165}, {"measurement": "glycan array binding signal (z-score)", "setting": "Neu5Ac(a2-6)GalNAc", "value": -1.27}, {"measurement": "glycan array binding signal (z-score)", "setting": "[12]", "value": -1.1}, {"measurement": "glycan array binding signal (z-score)", "setting": "[13]", "value": -0.674}, {"measurement": "glycan array binding signal (z-score)", "setting": "[14]", "value": -0.862}, {"measurement": "glycan array binding signal (z-score)", "setting": "[15]", "value": -0.788}, {"measurement": "glycan array binding signal (z-score)", "setting": "Neu5Ac(a2-8)Neu5Ac", "value": -0.582}, {"measurement": "glycan array binding signal (z-score)", "setting": "[16]", "value": -0.542}, {"measurement": "glycan array binding signal (z-score)", "setting": "[17]", "value": -0.804}, {"measurement": "glycan array binding signal (z-score)", "setting": "[18]", "value": -0.601}, {"measurement": "glycan array binding signal (z-score)", "setting": "[19]", "value": -1.25}, {"measurement": "glycan array binding signal (z-score)", "setting": "[20]", "value": -0.44}, {"measurement": "glycan array binding signal (z-score)", "setting": "[21]", "value": -0.166}, {"measurement": "glycan array binding signal (z-score)", "setting": "[22]", "value": -1.14}, {"measurement": "glycan array binding signal (z-score)", "setting": "[23]", "value": -0.842}, {"measurement": "glycan array binding signal (z-score)", "setting": "[24]", "value": -0.82}, {"measurement": "glycan array binding signal (z-score)", "setting": "[25]", "value": -0.524}, {"measurement": "glycan array binding signal (z-score)", "setting": "[26]", "value": 2.18}, {"measurement": "glycan array binding signal (z-score)", "setting": "[27]", "value": -0.152}, {"measurement": "glycan array binding signal (z-score)", "setting": "[28]", "value": -0.329}, {"measurement": "glycan array binding signal (z-score)", "setting": "Neu5Ac(b2-6)GalNAc", "value": -0.184}, {"measurement": "glycan array binding signal (z-score)", "setting": "[29]", "value": -0.766}, {"measurement": "glycan array binding signal (z-score)", "setting": "[30]", "value": -1.39}, {"measurement": "glycan array binding signal (z-score)", "setting": "[31]", "value": -0.18}, {"measurement": "glycan array binding signal (z-score)", "setting": "[32]", "value": -0.928}, {"measurement": "glycan array binding signal (z-score)", "setting": "[33]", "value": -0.907}, {"measurement": "glycan array binding signal (z-score)", "setting": "Neu5Gc(a2-3)Gal(b1-4)Glc", "value": -0.538}, {"measurement": "glycan array binding signal (z-score)", "setting": "[34]", "value": -0.513}, {"measurement": "glycan array binding signal (z-score)", "setting": "[35]", "value": 0.951}, {"measurement": "glycan array binding signal (z-score)", "setting": "[36]", "value": 0.014}, {"measurement": "glycan array binding signal (z-score)", "setting": "[37]", "value": 0.556}, {"measurement": "glycan array binding signal (z-score)", "setting": "Neu5Gc(a2-6)GalNAc", "value": 0.207}, {"measurement": "glycan array binding signal (z-score)", "setting": "[38]", "value": -0.769}, {"measurement": "glycan array binding signal (z-score)", "setting": "[39]", "value": -0.72}, {"measurement": "glycan array binding signal (z-score)", "setting": "[40]", "value": -1.08}]}]}
